PubChem BioAssay AID504793, Drosophila RNAi Screening Center | 2011
Assay: 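Genes required for cells to halt at G2/M after double-strand DNA breaks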 (primary screen). Cells: Drosophila S2R+ cells. Knock-down reagent: long dsRNA against Drosophila genes, about 0.25 µg dsRNA per well. Timing: 4 days of dsRNA, then 4 hours of drug before read-out. Challenge: doxorubicin 0.5 µM for 4 hours to cause double-strand breaks, in cells also given a low, harmless dose of dsRNA against nbs to sensitise the assay. Measured: 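Per-well count of mitotic cells stained for phospho-histone H3 after doxorubicin exposure, used as mitotic index; counts are raw and not normalised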. Scale: mitotic cells: higher = more cells in mitosis, weaker G2 arrest. Rule for the call: 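Genes are called active only when high mitotic counts were reproduced with independent dsRNAs and mitosis was checked for delay without damage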. Calls: active = confirmed in follow-up tests; inactive = not confirmed.
The deposit covers about 23,000 reagents; below is a random part of those with a known target gene and a result. In the full data, 62 (0.27%) are marked active. 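Calls come from follow-up tests whose scores are not deposited, so confirmed genes may have low counts here; counts are not normalised per plate.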 Raw values vary from plate to plate and are shown uncorrected. The numbers tell different reagents against one gene apart. A plus sign joins genes that one reagent is predicted to hit.

gene | reagent no. | mitotic cells, replicate 1 | mitotic cells, replicate 2 | outcome
Cyp4s3 (Cytochrome P450 4s3) | 1 | 12 | – | inactive
Cyp4s3 (Cytochrome P450 4s3) | 2 | 5 | – | inactive
Cyp4s3 (Cytochrome P450 4s3) | 3 | 7 | – | inactive
Hus1-like | 1 | 2 | – | inactive
Efa6 (Exchange factor for Arf 6) | 1 | 21 | – | inactive
Efa6 (Exchange factor for Arf 6) | 2 | 12 | – | inactive
Efa6 (Exchange factor for Arf 6) | 3 | 11 | – | inactive
CG9173 | 1 | 3 | – | inactive
tous (testes of unusual size) | 1 | 4 | – | inactive
Kpc2 (Kip1 ubiquitination-promoting complex subunit 2) | 1 | 7 | – | inactive
msd1 (mitotic spindle density 1) | 1 | 38 | – | inactive
alpha-Cat (alpha Catenin) | 1 | 6 | 13 | inactive
CG8813 | 1 | 1 | – | inactive
CG11912 | 1 | 18 | – | inactive
Sec3 (Secretory 3) | 1 | 5 | – | inactive
4E-T (eIF4E-Transporter) | 1 | 10 | – | inactive
4E-T (eIF4E-Transporter) | 2 | 11 | – | inactive
CG31287 | 1 | 8 | – | inactive
eIF4G2 (eukaryotic translation initiation factor 4G2) | 1 | 7 | – | inactive
eIF4G2 (eukaryotic translation initiation factor 4G2) | 2 | 10 | – | inactive
CG16813 | 1 | 4 | – | inactive
CG6118 | 1 | 12 | – | inactive
CG6118 | 2 | 13 | – | inactive
CG7430 | 1 | 10 | – | inactive
Ubx (Ultrabithorax) | 1 | 7 | – | inactive
Ubx (Ultrabithorax) | 2 | 7 | – | inactive
Ubx (Ultrabithorax) | 3 | 9 | – | inactive
CG15196 | 1 | 15 | – | inactive
CG15196 | 2 | 6 | – | inactive
c12.2 | 1 | 18 | – | inactive
c12.2 | 2 | 2 | – | inactive
Mdr49 (Multi drug resistance 49) | 1 | 8 | – | inactive
Mdr49 (Multi drug resistance 49) | 2 | – | – | inactive
e(y)2 (enhancer of yellow 2) | 1 | 11 | – | inactive
glob2 (globin 2) | 1 | 2 | – | inactive
CG12640 | 1 | 10 | – | inactive
CG12640 | 2 | 6 | – | inactive
CG42237 | 1 | 13 | – | inactive
Mkrn1 (Makorin 1) | 1 | 7 | – | inactive
Mkrn1 (Makorin 1) | 2 | 3 | – | inactive
CG14111 | 1 | 6 | – | inactive
CG14111 | 2 | 5 | – | inactive
CG9547 | 1 | 4 | – | inactive
CG9547 | 2 | 2 | – | inactive
CG15047 | 1 | 15 | – | inactive
CG15047 | 2 | 6 | – | inactive
CG15047 | 3 | 3 | – | inactive
nxf2 (nuclear RNA export factor 2) | 1 | 4 | – | inactive
nxf2 (nuclear RNA export factor 2) | 2 | 4 | – | inactive
Rrp47 (Ribosomal RNA processing 47) | 1 | 4 | – | inactive
Rrp47 (Ribosomal RNA processing 47) | 2 | 12 | – | inactive
snRNA:U1:95Cc (small nuclear RNA U1 at 95C c) | 1 | 23 | – | inactive
opa (odd paired) | 1 | 6 | – | inactive
opa (odd paired) | 2 | 6 | – | inactive
opa (odd paired) | 3 | 5 | – | inactive
UQCR-C1 (Ubiquinol-cytochrome c reductase core protein 1) | 1 | 4 | – | inactive
CG31800 | 1 | 8 | – | inactive
CG31800 | 2 | 4 | – | inactive
CG4686 | 1 | 7 | – | inactive
alpha-Man-Ia (alpha-Mannosidase class I a) | 1 | 4 | – | inactive
alpha-Man-Ia (alpha-Mannosidase class I a) | 2 | 7 | – | inactive
alpha-Man-Ia (alpha-Mannosidase class I a) | 3 | 11 | – | inactive
alpha-Man-Ia (alpha-Mannosidase class I a) | 4 | 12 | – | inactive
alpha-Man-Ia (alpha-Mannosidase class I a) | 5 | 16 | – | inactive
t-cup (tetleys-cup) | 1 | 24 | – | inactive
t-cup (tetleys-cup) | 2 | 11 | – | inactive
CG13066 | 1 | 6 | – | inactive
Fpgs2 (Folylpolyglutamate synthase 2) | 1 | 5 | – | inactive
CG11211 | 1 | 8 | – | inactive
CG8034 | 1 | 4 | – | inactive
CG8034 | 2 | 5 | – | inactive
Chs2 (Chitin synthase 2) | 1 | 4 | – | inactive
CG6179 | 1 | 16 | – | inactive
Rok (Rho kinase) | 1 | 8 | – | inactive
Rok (Rho kinase) | 2 | 22 | – | inactive
CG4872 | 1 | 3 | – | inactive
Tango5 (Transport and Golgi organization 5) | 1 | 7 | – | inactive
Tango5 (Transport and Golgi organization 5) | 2 | 7 | – | inactive
Pen (Pendulin) | 1 | 4 | – | inactive
Pen (Pendulin) | 2 | 3 | – | inactive
CG16723 | 1 | 15 | – | inactive
CG16723 | 2 | 6 | – | inactive
CG15237 | 1 | 4 | – | inactive
CG7248 | 1 | 6 | – | inactive
MnM (myomesin and myosin binding protein) | 1 | 4 | – | inactive
CG3679 | 1 | 7 | – | inactive
CG3679 | 2 | 5 | – | inactive
CG18661 | 1 | 5 | – | inactive
CG4570 | 1 | 7 | – | inactive
IntS8 (Integrator 8) | 1 | 5 | – | inactive
Vha100-4 (Vacuolar H[+] ATPase 100kD subunit 4) | 1 | 11 | – | inactive
Vha100-4 (Vacuolar H[+] ATPase 100kD subunit 4) | 2 | 8 | – | inactive
CG14492 | 1 | 8 | – | inactive
MED23 + CG3700 | 1 | 6 | – | inactive
MED23 + CG3700 | 2 | 11 | – | inactive
MED23 + CG3700 | 3 | 11 | – | inactive
MED23 + CG3700 | 4 | 4 | – | inactive
pon (partner of numb) | 1 | 10 | – | inactive
stc (shuttle craft) | 1 | 7 | – | inactive
Mcm6 (Minichromosome maintenance 6) | 1 | 6 | – | inactive
Mcm6 (Minichromosome maintenance 6) | 2 | 3 | – | inactive
ATPsynD (ATP synthase, subunit D) | 1 | 7 | – | inactive
ATPsynD (ATP synthase, subunit D) | 2 | 6 | – | inactive
CG4465 | 1 | 9 | – | inactive
CG5853 | 1 | 16 | – | inactive
CG5853 | 2 | 3 | – | inactive
Uqcc1 + CG9948 | 1 | 6 | – | inactive
CG13077 | 1 | 9 | – | inactive
Bap111 (Brahma associated protein 111kD) | 1 | 4 | 16 | inactive
Bap111 (Brahma associated protein 111kD) | 2 | 14 | – | inactive

Look-ups from the entries so far.
For “outcome”, Vha100-4 (Vacuolar H[+] ATPase 100kD subunit 4) #2 reads inactive
Result of CG11211 under “outcome”: inactive
Under “outcome”, nxf2 (nuclear RNA export factor 2) #1 has inactive
Entry of Fpgs2 (Folylpolyglutamate synthase 2) in “mitotic cells, replicate 1”: 5
CG15047 #3, mitotic cells, replicate 1 → 3
Entry of CG3679 #1 in “outcome”: inactive
